Binding data for five molecules are collected here from paper PMC10000386.

Sequences of proteins named here, by UniProt entry; tags and fusion partners are left off. A change or cut given only in a name is not applied to a line headed by its entry.
UniProt Q07812: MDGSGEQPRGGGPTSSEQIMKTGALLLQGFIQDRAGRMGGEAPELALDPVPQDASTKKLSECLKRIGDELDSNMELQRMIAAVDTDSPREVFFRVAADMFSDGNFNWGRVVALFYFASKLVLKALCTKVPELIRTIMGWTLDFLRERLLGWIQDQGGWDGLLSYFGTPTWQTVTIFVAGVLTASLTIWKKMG
UniProt Q07817: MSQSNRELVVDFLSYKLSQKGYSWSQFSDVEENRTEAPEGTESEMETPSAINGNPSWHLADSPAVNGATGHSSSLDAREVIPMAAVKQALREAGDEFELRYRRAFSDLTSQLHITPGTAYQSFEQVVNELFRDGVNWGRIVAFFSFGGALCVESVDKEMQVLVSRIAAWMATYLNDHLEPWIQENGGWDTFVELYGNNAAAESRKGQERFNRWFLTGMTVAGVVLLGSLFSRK

Numbering of substitutions follows the chain as printed. Numbers in names are those of the source. These are yes or no findings as the source states them, for the method shown. Binding seen in cells or lysates may run through a third protein. Some entries that bind do so weakly or less than the wild type.

Experiment [1] deals with T1, Bak (human), Q16611.
T1 chain: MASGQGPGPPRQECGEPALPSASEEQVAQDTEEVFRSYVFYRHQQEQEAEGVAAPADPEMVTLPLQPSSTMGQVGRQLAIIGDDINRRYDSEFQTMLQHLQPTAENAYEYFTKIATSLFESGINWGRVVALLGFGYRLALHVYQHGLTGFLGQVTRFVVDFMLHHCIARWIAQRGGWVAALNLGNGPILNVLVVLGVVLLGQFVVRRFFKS
The experiment can be described thus: split reporter; BiFC: VN- and VC-Venus fragment fusions (N-terminal) co-transfected in HeLa cells with an mRFP vector, 30 µM Z-VAD-fmk, 37 °C, 24 h; Venus/mRFP mean fluorescence ratio of mRFP-positive cells by flow cytometry; in some experiments ABT-199, A-1155463 or S63845 added 1 h after transfection (reduced the complexes of Bcl-2, Bcl-XL or Mcl-1 with Bim, Puma and Noxa). To be noted: remark: other sources report otherwise. On the technique in general: In flow cytometry, cells or beads pass a laser one at a time.

For experiment [2], the target named is T2, Bak (human) (UniProt Q16611).
T2 sequence: T1 chain
The experiment is described as above.

The target of experiment [3] is T1, Bak (human), Q16611. Briefly: split reporter; multicolour BiFC competition: HeLa cells transfected at once with three pBiFC vectors (CN-, VN- and CC-fusions) and an mRFP vector; Cerulean and Venus fluorescence of mRFP-positive cells by flow cytometry 24 h after transfection. The settings on record: remark: other sources report otherwise.
Experiment [4] concerns the target Bax (human), Q07812. The description is as above. The settings on record: remark: other sources report otherwise.
Experiment [5] deals with Bax (human), Q07812. The experiment can be described thus: split reporter; BiFC: VN- and VC-Venus fragment fusions (N-terminal) co-transfected in HeLa cells with an mRFP vector, 30 µM Z-VAD-fmk, 37 °C, 24 h; Venus/mRFP mean fluorescence ratio of mRFP-positive cells by flow cytometry; in some experiments ABT-199, A-1155463 or S63845 added 1 h after transfection (reduced the complexes of Bcl-2, Bcl-XL or Mcl-1 with Bim, Puma and Noxa). The settings on record: remark: other sources report otherwise.

Experiment [6] has as its target Bcl-2 (human), P10415. Described as above. The settings on record: remark: other sources report otherwise.
The target of experiment [7] is Mcl-1 (human), Q07820. The description is as above. To be noted: remark: other sources report otherwise.
Experiment [8] has as its target Bax D33A (human) (UniProt Q07812). The description is as above.
For experiment [9], the target named is Bax K21E (human) (UniProt Q07812). Described as above.
Experiment [10] concerns the target Bcl-XL (human) (UniProt Q07817). Described as above.

B1: Bak, Q16611 1-211 (protein)
chain: T1 chain
For the molecule B1, the binding entry in experiment [1] is on record as “binds”.

B2: Bak H164A (protein, UniProt Q16611 1-211)
chain: T1 chain with H164A
B2: the binding result in experiment [2] is recorded as “binds”.

B3: Noxa, Q13794 1-54 (protein)
chain: MPGKKARKNAQPSPARAPAELEVECATQLRRFGDKLNFRQKLLNLISKLFCSGT
Regarding B3, the binding result in experiment [3], in experiment [4], in experiment [1], in experiment [5], in experiment [6] and in experiment [7] was “binds” throughout.

B4: Noxa (protein, UniProt Q13794 1-54)
chain: B3 chain
Turning to B4, the binding entry in experiment [8] was “binds”; in experiment [9], “binds”; in [10], “binds weakly”.

B5: Puma, Q9BXH1 1-193 (protein)
chain: MARARQEGSSPEPVEGLARDGPRPFPLGRLVPSAVSCGLCEPGLAAAPAAPTLLPAAYLCAPTAPPAVTAALGGSRWPGGPRSRPRGPRPDGPQPSLSLAEQHLESPVPSAPGALAGGPTQAAPGVRGEEEQWAREIGAQLRRMADDLNAQYERRRQEEQQRHRPSPWRVLYNLIMGLLPLPRGHRAPEMEPN
Regarding B5, the binding entry in experiment [3], in [4], in experiment [1] and in experiment [5] was “binds” each time.
